PubChem BioAssay AID212 (DTP/NCI, 2004)
The list does not hold the whole screen: it is rich in T/C values a quarter to a half above the control, in often repeated tests (any T/C) and in doses without a T/C. Other doses and runs of a compound stand elsewhere. T/C gives the treated animals as a percentage of the vehicle group. Schedule codes are those of the source, taken here to give the interval after Q, in days (D) or hours (H), and the number of doses after X. Some T/C values are followed by the survivors on the day toxicity was checked, most often the fifth; without a count, all were alive then. Some entries give survivors of the animals treated and no T/C: the source files T/C as zero there, which appears to mark a toxic dose or a test without result, not a measured value. Counts of survivors are from the toxicity check (mostly the fifth day) where no day follows; animals may have died later.

Tested on: BDF1 mice, colon carcinoma 38 sc, T/C %
Assay: NCI In Vivo Anticancer Drug Screen. Data for tumor model Colon Carcinoma 38 (subcutaneous) in B6D2F1 (BDF1) mice
Conditions: T/C endpoint: median tumor weight (est.), higher T/C = larger tumour; for T/C: evaluated on day 20
Summary of the method: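 Mice with transplanted tumors are treated with compound or vehicle. Survival or tumor size is then measured in both groups. The ratio of treated to control gives the reported figure.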

[1] = dose: 200.0 mg/kg/injection, schedule: Q07DX002 (ip), vehicle: Klucel (hydroxypropylcellulose) (HPC)

With `OC(C1CO1)C(O)C1CO1` (stereo not drawn) the T/C (dose: 4.0 mg/kg/injection, schedule: Q07DX002 (ip), vehicle: saline) was 132 % of control, the survivor count (dose: 16.0 mg/kg/injection, schedule: Q07DX002 (ip), vehicle: saline) was 0 of 10 on day 20 and the survivor count (dose: 16.0 mg/kg/injection, schedule: Q07DX003 (ip), vehicle: saline) was 2 of 10.

With `CCN(CC)CCNc1ccc(C)c2sc3ccccc3c(=O)c12` the T/C (dose: 12.5 mg/kg/injection, schedule: Q07DX002 (ip), vehicle: saline) was 126 % of control and the survivor count (dose: 400.0 mg/kg/injection, schedule: Q07DX002 (ip), vehicle: suspension in saline) was 3 of 10 on day 20.

With `CN(CO)c1nc(N(C)CO)nc(N(C)CO)n1` the T/C (dose: 6.25 mg/kg/injection, schedule: Q07DX003 (ip), vehicle: saline) was 132 % of control and the survivor count (dose: 400.0 mg/kg/injection, schedule: Q07DX002 (ip), vehicle: saline with Tween-80) was 1 of 10 on day 20.

With `Nc1ccc(C(=O)Nc2ccccc2N)cc1` the T/C (dose: 50.0 mg/kg/injection, schedule: Q07DX002 (ip), vehicle: saline with Tween-80) was 135 % of control [9 of 10 alive on day 20], the T/C (dose: 100.0 mg/kg/injection, schedule: Q01DX007 (oral), vehicle: saline with Tween-80) was 132 % of control [9 of 10 alive on day 20] and the survivor count (dose: 200.0 mg/kg/injection, schedule: Q01DX007 (ip), vehicle: saline with Tween-80) was 4 of 10 on day 20. For the same molecule, the survivor count (dose: 400.0 mg/kg/injection, schedule: Q01DX007 (ip), vehicle: saline with Tween-80) was 3 of 10 on day 20.

`Cc1c2ccncc2c(C)c2c1[nH]c1ccccc12` was tested, and the T/C (dose: 10.0 mg/kg/injection, schedule: Q07DX002 (ip), vehicle: distilled water + Tween-80) was 130 % of control, the T/C (dose: 10.0 mg/kg/injection, schedule: Q07DX002 (ip), vehicle: water) was 134 % of control and the survivor count (dose: 160.0 mg/kg/injection, schedule: Q07DX002 (ip), vehicle: distilled water + Tween-80) was 6 of 10 on day 20. The survivor count (dose: 160.0 mg/kg/injection, schedule: Q07DX002 (ip), vehicle: water) was 3 of 10 on day 20, the survivor count [1] was 3 of 10 and the survivor count (dose: 200.0 mg/kg/injection, schedule: Q07DX003 (ip), vehicle: Klucel (hydroxypropylcellulose) (HPC)) was 6 of 10. For the same molecule, the survivor count (dose: 240.0 mg/kg/injection, schedule: Q07DX002 (ip), vehicle: water) was 0 of 10 on day 20.

For `Nc1ncnc2c1ncn2C1OC(COP(=O)(O)O)C(O)C1O` (stereo not drawn), the T/C (dose: 800.0 mg/kg/injection, schedule: Q07DX002 (ip), vehicle: saline) was 131 % of control.

With `C=C(C)/C([O-])=N/[N+](C)(C)CC(O)CCCCCCCCCCCC` (stereo not drawn) the survivor count (dose: 800.0 mg/kg/injection, schedule: Q01DX001 (ip), vehicle: saline) was 0 of 10 on day 20.

With `O=C/C(Cl)=C(/Cl)C(=O)O` the T/C (dose: 5.0 mg/kg/injection, schedule: Q07DX002 (ip), vehicle: saline with Tween-80) was 132 % of control, the survivor count (dose: 40.0 mg/kg/injection, schedule: Q07DX002 (ip), vehicle: saline with Tween-80) was 5 of 10 on day 20 and the survivor count (dose: 80.0 mg/kg/injection, schedule: Q07DX002 (ip), vehicle: saline with Tween-80) was 0 of 10 on day 20.

In the case of `Nc1cc2c3c(cccc3c1)C(=O)N(CCN1CCCC1)C2=O`, the T/C (dose: 6.25 mg/kg/injection, schedule: Q07DX002 (ip), vehicle: saline with Tween-80) is reported as 140 % of control [9 of 10 alive on day 20] and the T/C (dose: 12.5 mg/kg/injection, schedule: Q07DX002 (ip), vehicle: saline with Tween-80) is reported as 142 % of control [9 of 10 alive on day 20].

`CCCCCC(O)C1C(=O)OC(C)C(O)/C=C/C=C/C=C/C=C/C=C(\C)C(O)C(O)C(O)CC(O)CC(O)CC(O)CC(O)CC1O` (stereo not drawn) was tested, and the T/C (dose: 2.0 mg/kg/injection, schedule: Q07DX002 (ip), vehicle: saline) was 125 % of control.

`O=S(=O)(SC(S(=O)(=O)c1ccccc1)S(=O)(=O)c1ccccc1)c1ccccc1` was tested, and the T/C [1] was 146 % of control and the T/C (dose: 800.0 mg/kg/injection, schedule: Q07DX002 (ip), vehicle: Klucel (hydroxypropylcellulose) (HPC)) was 137 % of control [9 of 10 alive on day 20].
